These are yes or no findings as the source states them, for the method shown. Some binding calls cover weakened binding; strength is not graded here.
Target: RecA, bacterial two-hybrid fusion (S. pneumoniae) (UniProt P0A452)
Experiment: two-hybrid; adenylate cyclase-based bacterial two-hybrid (BacTH), T18 and T25 fusions in E. coli BTH101, drops on LB plates with IPTG and X-Gal, 24 h at 25 °C

binding: binds
Substance: RecA, bacterial two-hybrid fusion (from UniProt P0A452 1-388) (enzyme)

— PMC5512693, “Bacterial RadA is a DnaB-type helicase interacting with RecA to promote bidirectional D-loop extension” (Nature Communications, 2017)
